Data from article PMC7327512.
Results are given in words; binding and its absence hold for the method and conditions named. Where a sequence is shown, tags or fusion partners need not be part of it.

The chains behind the UniProt entries cited, without tags or fusion partners. Where a name states a change or a piece, a line headed by the entry shows the natural chain unless it says otherwise.
UniProt O15230: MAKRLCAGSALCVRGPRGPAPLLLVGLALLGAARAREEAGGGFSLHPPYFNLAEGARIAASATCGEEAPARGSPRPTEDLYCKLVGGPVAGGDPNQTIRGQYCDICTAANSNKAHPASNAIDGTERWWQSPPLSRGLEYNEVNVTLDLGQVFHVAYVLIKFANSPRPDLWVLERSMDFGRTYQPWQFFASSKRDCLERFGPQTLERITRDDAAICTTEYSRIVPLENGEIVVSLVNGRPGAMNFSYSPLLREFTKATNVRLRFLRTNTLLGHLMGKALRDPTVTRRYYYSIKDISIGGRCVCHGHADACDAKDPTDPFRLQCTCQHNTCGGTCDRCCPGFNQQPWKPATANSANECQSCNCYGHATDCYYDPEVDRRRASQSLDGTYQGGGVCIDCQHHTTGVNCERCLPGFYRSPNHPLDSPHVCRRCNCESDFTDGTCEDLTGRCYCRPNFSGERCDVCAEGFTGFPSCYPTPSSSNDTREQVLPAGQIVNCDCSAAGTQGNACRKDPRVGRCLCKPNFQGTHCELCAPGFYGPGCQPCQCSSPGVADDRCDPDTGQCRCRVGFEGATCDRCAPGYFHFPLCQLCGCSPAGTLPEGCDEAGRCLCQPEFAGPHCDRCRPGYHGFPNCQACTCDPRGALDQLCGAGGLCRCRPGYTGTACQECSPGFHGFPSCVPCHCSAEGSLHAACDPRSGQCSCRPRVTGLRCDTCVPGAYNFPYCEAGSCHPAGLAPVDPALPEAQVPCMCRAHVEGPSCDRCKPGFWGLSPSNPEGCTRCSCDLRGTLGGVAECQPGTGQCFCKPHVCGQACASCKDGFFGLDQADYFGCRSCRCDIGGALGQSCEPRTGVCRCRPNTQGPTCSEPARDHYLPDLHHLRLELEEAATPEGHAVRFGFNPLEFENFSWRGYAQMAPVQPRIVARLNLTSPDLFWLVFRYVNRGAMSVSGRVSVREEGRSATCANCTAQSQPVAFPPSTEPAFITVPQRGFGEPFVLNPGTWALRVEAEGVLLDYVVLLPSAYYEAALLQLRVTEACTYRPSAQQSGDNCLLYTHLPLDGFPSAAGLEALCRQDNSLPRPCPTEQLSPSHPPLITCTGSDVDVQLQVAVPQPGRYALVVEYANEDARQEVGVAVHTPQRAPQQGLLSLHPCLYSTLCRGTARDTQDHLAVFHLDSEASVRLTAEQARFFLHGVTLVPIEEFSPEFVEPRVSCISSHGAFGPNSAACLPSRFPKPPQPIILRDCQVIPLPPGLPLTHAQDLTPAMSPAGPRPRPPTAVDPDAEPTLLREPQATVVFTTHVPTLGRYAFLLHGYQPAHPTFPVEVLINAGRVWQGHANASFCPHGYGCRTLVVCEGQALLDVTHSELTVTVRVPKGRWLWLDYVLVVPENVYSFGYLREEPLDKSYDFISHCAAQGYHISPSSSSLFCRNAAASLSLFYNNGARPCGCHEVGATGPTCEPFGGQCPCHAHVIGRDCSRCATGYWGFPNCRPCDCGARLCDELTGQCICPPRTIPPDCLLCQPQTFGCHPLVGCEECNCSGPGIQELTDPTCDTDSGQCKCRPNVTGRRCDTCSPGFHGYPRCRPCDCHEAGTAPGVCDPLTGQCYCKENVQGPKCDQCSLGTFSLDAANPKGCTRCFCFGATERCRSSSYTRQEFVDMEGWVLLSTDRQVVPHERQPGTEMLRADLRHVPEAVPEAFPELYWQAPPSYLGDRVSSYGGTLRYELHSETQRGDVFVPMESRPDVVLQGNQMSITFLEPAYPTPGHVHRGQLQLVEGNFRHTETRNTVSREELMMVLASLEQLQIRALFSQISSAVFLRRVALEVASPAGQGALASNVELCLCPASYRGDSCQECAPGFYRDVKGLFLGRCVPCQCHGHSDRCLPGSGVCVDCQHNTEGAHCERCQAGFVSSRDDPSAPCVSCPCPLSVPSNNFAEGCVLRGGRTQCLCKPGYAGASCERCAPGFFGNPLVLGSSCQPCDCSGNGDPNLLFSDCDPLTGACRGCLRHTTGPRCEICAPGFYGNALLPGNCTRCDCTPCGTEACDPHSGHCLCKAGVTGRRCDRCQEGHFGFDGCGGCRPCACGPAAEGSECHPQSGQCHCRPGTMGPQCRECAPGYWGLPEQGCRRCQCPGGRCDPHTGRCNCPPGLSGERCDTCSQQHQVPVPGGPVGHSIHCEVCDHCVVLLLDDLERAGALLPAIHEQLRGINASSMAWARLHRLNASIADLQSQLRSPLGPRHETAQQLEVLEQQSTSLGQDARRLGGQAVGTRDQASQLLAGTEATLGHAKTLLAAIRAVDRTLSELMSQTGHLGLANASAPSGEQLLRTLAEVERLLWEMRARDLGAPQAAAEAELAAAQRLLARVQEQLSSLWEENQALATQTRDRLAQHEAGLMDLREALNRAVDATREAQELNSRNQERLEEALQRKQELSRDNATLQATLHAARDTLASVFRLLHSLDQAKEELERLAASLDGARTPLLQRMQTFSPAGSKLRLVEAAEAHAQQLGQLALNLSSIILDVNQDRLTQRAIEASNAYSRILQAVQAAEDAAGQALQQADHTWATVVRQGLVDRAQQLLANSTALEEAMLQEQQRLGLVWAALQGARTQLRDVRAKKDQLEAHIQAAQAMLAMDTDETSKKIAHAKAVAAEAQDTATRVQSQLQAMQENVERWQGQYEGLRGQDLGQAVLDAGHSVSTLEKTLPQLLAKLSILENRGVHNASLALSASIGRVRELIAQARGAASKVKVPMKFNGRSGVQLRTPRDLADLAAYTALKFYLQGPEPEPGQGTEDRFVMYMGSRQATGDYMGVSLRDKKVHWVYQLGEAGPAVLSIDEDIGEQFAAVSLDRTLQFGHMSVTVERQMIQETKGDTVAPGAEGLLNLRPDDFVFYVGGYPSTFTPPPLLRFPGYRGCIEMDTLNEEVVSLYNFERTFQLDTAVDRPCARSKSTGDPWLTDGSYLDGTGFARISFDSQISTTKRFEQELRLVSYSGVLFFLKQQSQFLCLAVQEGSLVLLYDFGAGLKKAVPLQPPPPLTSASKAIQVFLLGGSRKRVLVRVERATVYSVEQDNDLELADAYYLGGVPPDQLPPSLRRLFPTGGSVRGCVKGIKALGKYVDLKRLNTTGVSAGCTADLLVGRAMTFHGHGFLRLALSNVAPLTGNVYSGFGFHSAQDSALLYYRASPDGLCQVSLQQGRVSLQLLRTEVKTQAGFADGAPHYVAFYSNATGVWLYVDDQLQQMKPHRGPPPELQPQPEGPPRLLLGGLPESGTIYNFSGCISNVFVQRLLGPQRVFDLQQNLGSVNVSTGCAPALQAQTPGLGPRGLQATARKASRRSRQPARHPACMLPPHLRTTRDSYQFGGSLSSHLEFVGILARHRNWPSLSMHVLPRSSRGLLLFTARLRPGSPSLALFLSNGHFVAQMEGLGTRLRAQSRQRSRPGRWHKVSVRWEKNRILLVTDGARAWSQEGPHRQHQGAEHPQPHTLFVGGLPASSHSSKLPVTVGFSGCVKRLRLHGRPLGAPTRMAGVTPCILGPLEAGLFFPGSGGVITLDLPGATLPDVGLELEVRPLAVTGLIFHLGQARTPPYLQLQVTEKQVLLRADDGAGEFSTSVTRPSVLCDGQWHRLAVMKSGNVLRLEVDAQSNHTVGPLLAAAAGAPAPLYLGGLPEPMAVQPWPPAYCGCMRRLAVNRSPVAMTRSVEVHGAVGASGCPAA
UniProt P11047: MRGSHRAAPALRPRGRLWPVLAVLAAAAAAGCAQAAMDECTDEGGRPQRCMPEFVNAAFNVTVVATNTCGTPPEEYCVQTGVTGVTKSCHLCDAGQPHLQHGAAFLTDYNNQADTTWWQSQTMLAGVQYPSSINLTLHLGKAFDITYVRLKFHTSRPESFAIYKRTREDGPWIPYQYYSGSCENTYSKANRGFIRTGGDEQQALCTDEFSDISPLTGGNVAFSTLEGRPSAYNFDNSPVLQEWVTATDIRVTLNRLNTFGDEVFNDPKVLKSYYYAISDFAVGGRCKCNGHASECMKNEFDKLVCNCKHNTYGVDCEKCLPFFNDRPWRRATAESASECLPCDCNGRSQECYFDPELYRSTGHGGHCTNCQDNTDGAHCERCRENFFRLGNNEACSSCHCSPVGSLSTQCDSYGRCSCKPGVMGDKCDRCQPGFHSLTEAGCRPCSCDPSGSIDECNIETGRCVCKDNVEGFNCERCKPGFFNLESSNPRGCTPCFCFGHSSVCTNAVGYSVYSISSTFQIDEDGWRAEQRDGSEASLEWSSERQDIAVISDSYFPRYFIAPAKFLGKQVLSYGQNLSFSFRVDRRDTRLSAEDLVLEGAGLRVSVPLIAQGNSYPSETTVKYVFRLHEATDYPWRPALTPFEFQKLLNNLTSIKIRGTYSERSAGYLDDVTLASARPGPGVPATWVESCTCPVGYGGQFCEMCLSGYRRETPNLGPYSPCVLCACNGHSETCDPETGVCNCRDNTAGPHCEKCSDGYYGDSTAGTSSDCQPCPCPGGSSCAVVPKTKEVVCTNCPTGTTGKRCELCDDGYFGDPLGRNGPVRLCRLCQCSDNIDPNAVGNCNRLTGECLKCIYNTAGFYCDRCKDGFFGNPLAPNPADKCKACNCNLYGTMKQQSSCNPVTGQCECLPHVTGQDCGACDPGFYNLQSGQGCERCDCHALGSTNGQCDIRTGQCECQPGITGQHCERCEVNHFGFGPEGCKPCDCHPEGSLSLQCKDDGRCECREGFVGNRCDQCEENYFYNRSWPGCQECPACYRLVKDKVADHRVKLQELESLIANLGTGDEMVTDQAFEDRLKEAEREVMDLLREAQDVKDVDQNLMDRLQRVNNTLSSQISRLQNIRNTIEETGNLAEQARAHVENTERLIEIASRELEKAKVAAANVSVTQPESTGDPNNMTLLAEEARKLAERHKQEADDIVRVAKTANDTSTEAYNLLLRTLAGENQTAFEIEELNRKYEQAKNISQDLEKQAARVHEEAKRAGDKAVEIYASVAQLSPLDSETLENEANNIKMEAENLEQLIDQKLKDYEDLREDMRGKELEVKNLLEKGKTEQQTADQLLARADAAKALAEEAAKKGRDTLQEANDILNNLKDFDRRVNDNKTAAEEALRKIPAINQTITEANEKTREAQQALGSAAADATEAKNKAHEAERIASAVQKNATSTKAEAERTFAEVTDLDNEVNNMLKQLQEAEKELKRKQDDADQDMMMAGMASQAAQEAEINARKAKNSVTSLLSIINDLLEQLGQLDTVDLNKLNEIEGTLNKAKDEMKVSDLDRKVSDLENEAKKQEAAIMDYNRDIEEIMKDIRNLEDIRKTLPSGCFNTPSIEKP

How the values were obtained:
[1] = molecular target: recombinant human laminin-511 (laminin α5β1γ1) (human) (UniProt O15230+P07942+P11047); assay: ligand affinity purification of integrin adhesion complexes, western blot; podocytes spread on dishes coated with ECM ligand or apotransferrin (10 μg/ml); cross-linker DTBP 6 mM for 3 min; cell bodies removed with Triton X-100 extraction buffer and water wash; complexes left bound to the substrate resolved by SDS-PAGE and blotted; only the target purified
[2] = molecular target: recombinant human laminin-521 (laminin α5β2γ1) (human) (UniProt O15230+P55268+P11047); assay: as above

B1: Bcl-2 homologous antagonist/killer (protein, UniProt Q16611 1-211)
chain: MASGQGPGPPRQECGEPALPSASEEQVAQDTEEVFRSYVFYRHQQEQEAEGVAAPADPEMVTLPLQPSSTMGQVGRQLAIIGDDINRRYDSEFQTMLQHLQPTAENAYEYFTKIATSLFESGINWGRVVALLGFGYRLALHVYQHGLTGFLGQVTRFVVDFMLHHCIARWIAQRGGWVAALNLGNGPILNVLVVLGVVLLGQFVVRRFFKS
In the case of B1, the binding [1] is reported as “no binding” and the binding [2] is reported as “no binding”.
